# Reference: PMC9784969, “SARS-CoV-2 Inhibitors Identified by Phenotypic Analysis of a Collection of Viral RNA-Binding Molecules” (Pharmaceuticals, 2022)
# Structures can show the parent of a compound that is named as a salt. Where two headings read alike, the source gives them in different places.
# How the values were obtained:
# [1] = target: subdomain IIB of the rev recognition element (RRE) of the HIV-1 genomic RNA; details: read-out: HIV-1 RNA-binding Kd; cited from earlier work
# [2] = test system: SARS-CoV-2 USA-WA1/2020; assay: microbe, parasite or virus in culture; type: cell-based; details: Severe acute respiratory syndrome coronavirus 2, 48 h; 293T-ACE2 cells, MOI 0.25, two days
# [3] = in vitro; details: African green monkey, uninfected Vero E6 cells
# [4] = test system: HIV-1; details: cited from earlier work
# [5] = target: 3_S2m-23fl RNA hairpin; assay: fluorescence intensity binding assay; design: species or system SARS-CoV-2
# Source text: The 3_S2m-23fl RNA oligonucleotide used in fluorescence intensity experiments was purchased HPLC-purified from Integrated DNA Technologies (Coralville, IA, USA). This oligonucleotide contained a fluorescein probe linked to the apical loop nt U23 and was identical in sequence to the unlabeled 3_S2m molecule used in NMR experiments (Figure 5). The mixture of tRNAs from E. coli MRE 600 (identified as tRNA^mix) used to evaluate specificity was obtained from Roche (Basel, Switzerland).
# 3_S2m-23fl (at 100 nM concentration) was snap-cooled in a buffer containing sodium phosphate pH 6.6, 0 or 150 mM NaCl, and 0.1 mM EDTA and incubated with increasing amounts of compound. The specificity of the RNA–ligand interactions was evaluated by repeating the assays in the presence of a 100-fold molar excess (10 μM) of tRNA^mix. […] All fluorescence binding assays were carried out three times for each molecule and condition.
# [6] = in vitro; details: human, uninfected 293T-ACE2 cells
# [7] = test system: SARS-CoV-2 USA-WA1/2020; assay: microbe, parasite or virus in culture; type: cell-based; details: Severe acute respiratory syndrome coronavirus 2, Vero C1008, 48 h, Vero E6 cells, MOI 0.025, two days
Structure (SMILES),Kd [1] [µM],EC50 [2] [nM],CC50 at 2 days [3] [nM],"Previous target virus activity ([4]; HIV-1, ref 1 (Table S1 list: Prado et al. 2016))",EC50 ([4]; read-out: anti-HIV EC50) [µM],"Kd ([5]; 0 mM NaCl, pH 6.6, 25 °C, read-out: Kd) [µM]","Kd ([5]; 150 mM NaCl, 100-fold molar excess of tRNA, read-out: Kd-tRNA) [µM]","Kd ([5]; 150 mM NaCl, pH 6.6, 25 °C, no tRNA, read-out: Kd) [µM]",CC50 at 2 days [6] [µM],EC50 [7] [nM]
"CCN(CC)CCOc1ccc(C(=C(Cl)c2ccccc2)c2ccccc2)cc1 [Clomiphene citrate, reference compound]",12.4,371,2620,yes,4.4,36,16.8,33.2,> 20,449
"CN1CCC(=C2c3ccccc3C=Cc3ccccc32)CC1 [Cyprohetadine, reference compound]",–,–,–,–,–,–,–,–,–,> 20000
